# Results as given in PubChem BioAssay AID540303 (National Center for Advancing Translational Sciences (NCATS), 2011).
# About 1,000 (0.3%) of roughly 330,000 compounds were called active. This list was built around the results that the source calls inconclusive (neither active nor inactive); the mix of calls is not that of the screen. Calls come from the whole dose curve; as a rule, active = well fitted inhibition curve with a large enough effect; inconclusive = small, poorly fitted or top-dose-only effect; inactive = no such curve, though single readings can be large or run the other way; tested in mouse RAW 264.7 cells. Where the call is inconclusive, the potency comes from a doubtful curve fit.
# Test: qHTS for Inhibitors of Cell Surface uPA Generation; note: nearly all actives have a fitted effect of over 55% in size
# Conditions: cell surface uPA generation assay; series mostly up to 38.3 µM; activity change, negative = inhibition: at the top concentration
# Outline: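 RAW 264.7 cells, 4000/well, given compound (1:5 dilutions, up to 38.3 uM final) and incubated 24 h at 37 C. Blocked uPA-dependent LF entry keeps ATP high; ATPlite luminescence read, 5 s exposure.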
# % is set by controls: 0 for no effect and ±100 for the full control effect; potency is the fitted concentration of half-maximal effect.
Compound,Potency,"activity change, negative = inhibition"
CCCCNc1c(-c2ccc(-c3ccc(C(C)=O)cc3)c(OC)c2)nc2cc(C)ccn12,"inconclusive: 7.94 µM [inhibitor, single point]",
CC(C)c1ccc(NC(=O)c2sccc2-n2cccc2)cc1,"inconclusive: 12.6 µM [inhibitor, single point]",
Cc1ccc(CN2CCN(Cc3cccn3-c3nccs3)CC2CCO)cc1 (centres undefined),,inactive: -0.483%
COc1cc(/C=C2\SC(N)=NC2=O)cc(Br)c1O,,inactive: 12.5%
CCOC(=O)CNC(=O)c1ccc(OCC(F)(F)F)cc1,"inconclusive: 8.91 µM [inhibitor, partial curve]",
COCCn1c(Cc2ccccc2)nnc1SCC(=O)N1CCCC1=O,"inconclusive: 14.1 µM [inhibitor, partial curve, poor fit]",
O=C(Nc1nc2c(Br)cccc2s1)C1CC1,"inconclusive: 5.01 µM [inhibitor, partial curve, poor fit]",
Cc1cc(C)c(C#N)c(SCC(=O)N(CCC#N)c2ccc3c(c2)OCCO3)n1,"inconclusive: 14.1 µM [inhibitor, partial curve, poor fit]",
CCc1ccc2nc(Nc3nc(COC)cc(=O)[nH]3)nc(C)c2c1,,inactive: 3.53%
Cc1nn(C)c(C)c1S(=O)(=O)N(CC(=O)N1CCc2ccccc2C1)c1ccc(C(C)C)cc1,"inconclusive: 15.8 µM [inhibitor, single point]",
NS(=O)(=O)c1cccc(NC(=O)CSc2ncnc3ccccc23)c1,"inconclusive: 10 µM [inhibitor, partial curve, poor fit]",
COc1ccccc1-n1cnc(N)c1C(C)=O,,inactive: 10.4%
COc1cc(S(=O)(=O)n2ccc(C)n2)ccc1Cl,,inactive: 1.63%
CN(C)c1cccc(/C=C(\C#N)c2ccccc2)c1,"inconclusive: 1.41 µM [inhibitor, partial curve, poor fit]",
C=C1C(=O)OC2C1CCC(C)=C1C(=O)C3OC3(C)C12 (centres undefined),"inconclusive: 31.6 µM [inhibitor, partial curve, poor fit]",
COc1ccc(F)cc1C(=O)C1CCCN(Cc2c[nH]c3ccccc23)C1 (centres undefined),"inconclusive: 10 µM [inhibitor, partial curve, poor fit]",
CCc1nnc(N/N=C\c2ccc(OC(C)=O)c(OC)c2)n1N,"inconclusive: 10 µM [inhibitor, single point]",
CCOC(=O)N1CCN(S(=O)(=O)/C=C/c2ccccc2)CC1,,inactive: 4.56%
CCc1ccc(Nc2nnc(SCC(=O)NC(=O)CN3CCCC3=O)s2)cc1,"inconclusive: 3.98 µM [inhibitor, partial curve, poor fit]",

# A different layout for some results above.
Compound | Potency | activity change, negative = inhibition
COc1ccccc1-n1cnc(N)c1C(C)=O |  | inactive: 10.4%
COc1cc(S(=O)(=O)n2ccc(C)n2)ccc1Cl |  | inactive: 1.63%
